Laboratory results taken from patent US20210382058A1, “PATIENT SELECTION FOR TREATMENT OF MYC POSITIVE CANCERS WITH INDENOISOQUINOLINES” (Purdue Research Foundation, priority 2020, published 2021).
Where two headings read alike, the source gives them in different places.

System: NCI-60 cancer cell lines
Assay: NCI-60 cancer cell line drug screen (GI50, MGM)
Assay type: cell-based
Details: Homo sapiens
Method: Cancer cells were incubated with the test compounds at five concentrations ranging from 100 μM to 10 nM for 48 h. […] The approximate average of GI50 values across the entire panel of NCI-60 cancer cell lines for each compound was recorded as the MGM value.

With COc1cnc2c(c1)C(=O)c1c-2n(CCCN2CCCC2)c(=O)c2cc(Cl)ccc12 [Compound 2] the GI50 (SF-268, read-out: Antiproliferative Activities [GI50 (μM)]) was 0.17 µM, the GI50 (SNB-19, read-out: Antiproliferative Activities [GI50 (μM)]) was 1.03 µM and the GI50 (SNB-75, read-out: Antiproliferative Activities [GI50 (μM)]) was 0.35 µM.
